Measured values published in the supplement of paper PMC7666118.
The other results are listed elsewhere or left out.

The chains behind the UniProt entries cited, without tags or fusion partners. Where a name states a change or a piece, a line headed by the entry shows the natural chain unless it says otherwise.
UniProt P28676: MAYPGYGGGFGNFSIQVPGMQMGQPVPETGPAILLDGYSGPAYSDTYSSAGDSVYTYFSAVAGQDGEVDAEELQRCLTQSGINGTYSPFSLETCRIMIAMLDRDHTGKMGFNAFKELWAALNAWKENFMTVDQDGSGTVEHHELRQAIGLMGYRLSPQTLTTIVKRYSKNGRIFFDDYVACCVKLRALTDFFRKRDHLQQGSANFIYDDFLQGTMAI
UniProt Q9UPT5: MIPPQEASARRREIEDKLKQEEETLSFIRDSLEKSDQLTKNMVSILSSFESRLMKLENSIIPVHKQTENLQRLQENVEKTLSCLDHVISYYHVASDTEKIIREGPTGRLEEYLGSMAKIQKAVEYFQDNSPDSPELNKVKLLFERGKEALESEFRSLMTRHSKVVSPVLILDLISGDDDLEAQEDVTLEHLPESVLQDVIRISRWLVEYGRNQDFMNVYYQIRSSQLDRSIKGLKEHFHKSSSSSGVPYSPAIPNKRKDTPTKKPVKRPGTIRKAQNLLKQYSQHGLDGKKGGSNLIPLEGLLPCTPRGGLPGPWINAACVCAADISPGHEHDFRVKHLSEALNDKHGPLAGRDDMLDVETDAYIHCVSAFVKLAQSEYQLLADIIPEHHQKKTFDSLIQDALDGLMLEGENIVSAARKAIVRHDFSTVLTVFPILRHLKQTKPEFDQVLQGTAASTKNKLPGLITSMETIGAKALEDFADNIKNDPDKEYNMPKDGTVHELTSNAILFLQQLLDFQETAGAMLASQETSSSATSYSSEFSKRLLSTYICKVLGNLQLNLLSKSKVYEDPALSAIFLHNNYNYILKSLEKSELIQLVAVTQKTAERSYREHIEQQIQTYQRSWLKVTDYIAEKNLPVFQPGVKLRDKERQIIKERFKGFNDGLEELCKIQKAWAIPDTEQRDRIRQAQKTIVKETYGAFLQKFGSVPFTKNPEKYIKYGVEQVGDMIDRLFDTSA
UniProt Q06547, whole entry: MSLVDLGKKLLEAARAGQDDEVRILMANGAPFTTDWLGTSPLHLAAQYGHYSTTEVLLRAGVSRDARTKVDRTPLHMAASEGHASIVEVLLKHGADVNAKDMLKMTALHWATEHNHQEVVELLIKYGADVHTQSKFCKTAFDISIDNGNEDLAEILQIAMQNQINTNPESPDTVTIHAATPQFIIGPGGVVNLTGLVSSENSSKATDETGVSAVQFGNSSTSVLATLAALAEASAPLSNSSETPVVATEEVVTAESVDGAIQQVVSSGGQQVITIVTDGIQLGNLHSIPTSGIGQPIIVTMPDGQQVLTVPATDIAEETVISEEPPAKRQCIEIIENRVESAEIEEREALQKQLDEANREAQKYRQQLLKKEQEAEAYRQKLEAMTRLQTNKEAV
UniProt Q9Y3B2, whole entry: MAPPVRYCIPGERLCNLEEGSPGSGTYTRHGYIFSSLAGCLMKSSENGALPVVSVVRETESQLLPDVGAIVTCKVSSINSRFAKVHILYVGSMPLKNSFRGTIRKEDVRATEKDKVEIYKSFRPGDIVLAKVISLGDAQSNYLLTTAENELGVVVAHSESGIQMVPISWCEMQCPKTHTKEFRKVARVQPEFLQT
UniProt Q8TAG9: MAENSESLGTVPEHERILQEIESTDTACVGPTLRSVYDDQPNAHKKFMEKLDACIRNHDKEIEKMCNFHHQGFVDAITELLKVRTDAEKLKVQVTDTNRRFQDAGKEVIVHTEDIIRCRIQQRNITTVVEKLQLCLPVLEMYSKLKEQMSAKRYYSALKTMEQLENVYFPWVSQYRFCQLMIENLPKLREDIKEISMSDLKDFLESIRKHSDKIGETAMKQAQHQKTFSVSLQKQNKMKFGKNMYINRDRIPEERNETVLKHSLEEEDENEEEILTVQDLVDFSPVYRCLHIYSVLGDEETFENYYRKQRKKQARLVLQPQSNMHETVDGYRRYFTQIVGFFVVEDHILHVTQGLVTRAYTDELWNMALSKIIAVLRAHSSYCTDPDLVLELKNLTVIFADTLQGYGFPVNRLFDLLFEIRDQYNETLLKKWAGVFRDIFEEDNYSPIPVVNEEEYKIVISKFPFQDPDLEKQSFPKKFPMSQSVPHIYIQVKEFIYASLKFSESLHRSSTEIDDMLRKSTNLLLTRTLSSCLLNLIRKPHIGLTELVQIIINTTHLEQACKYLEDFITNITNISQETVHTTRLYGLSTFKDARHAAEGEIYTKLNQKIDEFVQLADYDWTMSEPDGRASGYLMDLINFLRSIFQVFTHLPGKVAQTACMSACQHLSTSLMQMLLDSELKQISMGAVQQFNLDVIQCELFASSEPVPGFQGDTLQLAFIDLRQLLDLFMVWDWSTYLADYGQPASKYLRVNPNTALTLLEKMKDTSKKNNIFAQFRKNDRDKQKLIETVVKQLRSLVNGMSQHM
UniProt P39748, whole entry: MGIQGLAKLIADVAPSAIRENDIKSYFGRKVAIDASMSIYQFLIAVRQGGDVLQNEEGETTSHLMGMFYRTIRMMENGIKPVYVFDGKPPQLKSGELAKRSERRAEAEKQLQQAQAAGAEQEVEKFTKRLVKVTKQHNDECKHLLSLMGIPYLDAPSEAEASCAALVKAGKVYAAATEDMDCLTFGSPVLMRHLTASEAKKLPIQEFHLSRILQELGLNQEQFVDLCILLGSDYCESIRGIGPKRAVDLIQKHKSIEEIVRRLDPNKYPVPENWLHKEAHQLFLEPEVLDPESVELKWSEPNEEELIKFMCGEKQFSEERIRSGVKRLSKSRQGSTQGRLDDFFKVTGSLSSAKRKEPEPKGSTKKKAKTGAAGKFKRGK
UniProt Q9NRY5: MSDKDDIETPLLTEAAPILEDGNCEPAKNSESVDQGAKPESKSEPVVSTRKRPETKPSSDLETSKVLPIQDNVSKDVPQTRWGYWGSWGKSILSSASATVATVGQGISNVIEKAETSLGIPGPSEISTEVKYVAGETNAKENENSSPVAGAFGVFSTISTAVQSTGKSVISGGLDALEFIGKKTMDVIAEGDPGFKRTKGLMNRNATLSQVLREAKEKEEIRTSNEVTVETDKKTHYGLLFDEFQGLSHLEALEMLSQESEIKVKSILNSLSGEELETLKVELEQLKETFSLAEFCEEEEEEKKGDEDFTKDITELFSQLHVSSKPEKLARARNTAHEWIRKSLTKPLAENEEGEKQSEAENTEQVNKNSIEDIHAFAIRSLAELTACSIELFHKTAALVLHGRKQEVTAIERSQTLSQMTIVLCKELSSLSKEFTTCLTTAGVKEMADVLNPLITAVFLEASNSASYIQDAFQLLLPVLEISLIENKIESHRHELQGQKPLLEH
UniProt P14324: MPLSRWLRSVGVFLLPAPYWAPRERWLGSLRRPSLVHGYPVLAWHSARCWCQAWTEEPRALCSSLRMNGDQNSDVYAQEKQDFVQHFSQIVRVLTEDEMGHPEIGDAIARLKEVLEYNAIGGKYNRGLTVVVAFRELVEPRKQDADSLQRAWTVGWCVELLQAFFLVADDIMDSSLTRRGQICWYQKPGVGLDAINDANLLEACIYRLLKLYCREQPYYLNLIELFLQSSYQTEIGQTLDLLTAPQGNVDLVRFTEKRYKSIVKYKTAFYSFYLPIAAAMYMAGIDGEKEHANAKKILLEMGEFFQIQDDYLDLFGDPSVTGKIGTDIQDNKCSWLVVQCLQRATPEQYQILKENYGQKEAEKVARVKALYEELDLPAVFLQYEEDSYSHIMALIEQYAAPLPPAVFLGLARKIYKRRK
UniProt Q9BXW9: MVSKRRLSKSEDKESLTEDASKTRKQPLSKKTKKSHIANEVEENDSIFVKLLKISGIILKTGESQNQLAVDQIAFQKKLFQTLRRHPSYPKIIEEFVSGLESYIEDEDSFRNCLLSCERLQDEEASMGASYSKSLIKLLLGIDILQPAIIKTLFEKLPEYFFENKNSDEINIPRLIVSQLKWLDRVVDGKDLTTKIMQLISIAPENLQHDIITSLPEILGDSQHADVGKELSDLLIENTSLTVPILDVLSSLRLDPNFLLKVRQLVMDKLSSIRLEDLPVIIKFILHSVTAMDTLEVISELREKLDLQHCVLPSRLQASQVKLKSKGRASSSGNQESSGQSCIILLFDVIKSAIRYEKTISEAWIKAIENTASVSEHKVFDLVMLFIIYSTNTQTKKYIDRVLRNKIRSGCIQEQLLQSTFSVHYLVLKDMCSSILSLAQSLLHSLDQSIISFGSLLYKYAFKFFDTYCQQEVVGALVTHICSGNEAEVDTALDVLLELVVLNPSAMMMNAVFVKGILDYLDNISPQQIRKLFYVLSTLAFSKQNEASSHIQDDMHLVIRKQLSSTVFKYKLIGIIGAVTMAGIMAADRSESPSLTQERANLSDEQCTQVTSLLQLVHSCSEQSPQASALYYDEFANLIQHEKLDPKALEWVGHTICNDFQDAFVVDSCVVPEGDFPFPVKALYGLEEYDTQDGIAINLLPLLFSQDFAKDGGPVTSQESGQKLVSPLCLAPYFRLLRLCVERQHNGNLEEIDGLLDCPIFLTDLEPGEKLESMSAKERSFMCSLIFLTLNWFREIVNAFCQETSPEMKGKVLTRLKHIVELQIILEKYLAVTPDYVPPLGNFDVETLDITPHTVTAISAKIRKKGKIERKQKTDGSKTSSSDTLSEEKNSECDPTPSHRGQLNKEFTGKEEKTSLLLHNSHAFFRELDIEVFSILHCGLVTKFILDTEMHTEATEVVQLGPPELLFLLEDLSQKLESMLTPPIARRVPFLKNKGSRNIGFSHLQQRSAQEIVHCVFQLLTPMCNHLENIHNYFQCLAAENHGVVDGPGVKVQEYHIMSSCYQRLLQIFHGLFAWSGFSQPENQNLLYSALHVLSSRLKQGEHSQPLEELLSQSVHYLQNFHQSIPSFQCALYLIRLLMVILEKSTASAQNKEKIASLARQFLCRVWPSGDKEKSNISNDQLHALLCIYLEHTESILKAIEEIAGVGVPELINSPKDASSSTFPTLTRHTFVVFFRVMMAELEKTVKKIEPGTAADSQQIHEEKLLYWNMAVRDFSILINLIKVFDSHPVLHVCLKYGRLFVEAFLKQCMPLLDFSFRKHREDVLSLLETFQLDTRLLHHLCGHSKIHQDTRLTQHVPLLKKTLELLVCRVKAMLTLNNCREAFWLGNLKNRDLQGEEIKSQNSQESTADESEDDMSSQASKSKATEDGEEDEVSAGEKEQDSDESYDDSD
UniProt Q96G04: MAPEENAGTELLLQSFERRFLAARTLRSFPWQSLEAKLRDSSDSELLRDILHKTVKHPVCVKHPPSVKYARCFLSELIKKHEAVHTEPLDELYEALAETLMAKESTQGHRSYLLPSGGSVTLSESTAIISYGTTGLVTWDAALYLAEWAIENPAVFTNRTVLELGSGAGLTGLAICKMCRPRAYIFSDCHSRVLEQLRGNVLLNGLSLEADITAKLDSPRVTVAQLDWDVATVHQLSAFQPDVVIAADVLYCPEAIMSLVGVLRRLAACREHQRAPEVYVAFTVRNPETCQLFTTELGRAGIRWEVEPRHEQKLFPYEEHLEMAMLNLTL

compound: COc1ccc(Cn2ccc3ccc(C(=O)NO)cc32)cc1; experiment: dose-dependent thermal stabilisation call (2D-TPP, DLPTP, 10% FDR) (binary (1 = stabilised)); higher = stabilised by the compound; settings: system: HL-60 intact cells; concentration range 0.04-10 µM

Target | dose-dependent thermal stabilisation call
GCA (UniProt P28676) | inactive: 0
EXOC7 (UniProt Q9UPT5) | inactive: 0
GABPB1 (UniProt Q06547) | inactive: 0
EXOSC1 (UniProt Q9Y3B2) | inactive: 0
EXOC6 (UniProt Q8TAG9) | inactive: 0
FEN1 (UniProt P39748) | inactive: 0
FAM114A2 (UniProt Q9NRY5) | inactive: 0
FDPS (UniProt P14324) | inactive: 0
FANCD2 (UniProt Q9BXW9) | inactive: 0
FAM86A (UniProt Q96G04) | inactive: 0
